According to patent publication US11065343B2, “Compound bearing beta-galactoside-introduced self-immolative linker” (IntoCell Inc., priority 2016, dated 2021):
The match of structure and compound is tentative.

Protein sequences, listed by entry. Tags and fused reporters are not part of them. Residues count along the entry.
UniProt P15328, 25-234 limits assumed: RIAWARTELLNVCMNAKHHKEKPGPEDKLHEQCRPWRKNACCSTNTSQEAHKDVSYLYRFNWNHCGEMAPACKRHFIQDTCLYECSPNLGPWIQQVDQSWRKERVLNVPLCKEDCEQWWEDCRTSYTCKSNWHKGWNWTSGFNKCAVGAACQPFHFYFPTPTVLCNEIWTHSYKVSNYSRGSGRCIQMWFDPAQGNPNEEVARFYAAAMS

Key:
folate receptor = folate receptor (Homo sapiens, UniProt P15328); test: Binding affinity of ligand-drug conjugate to folic acid receptor (competition with FA-Cy5 tracer, polarized light); conditions: read-out: Binding affinity to folic acid receptor IC50; KB cell plasma membrane protein, 1 nM FA-Cy5 tracer, 2 hours at 37° C.

Compound CCC(C)C(C(CC(=O)N1CCCC1C(OC)C(C)C(=O)NC(Cc1ccccc1)C(=O)O)OC)N(C)C(=O)C(NC(=O)C(C(C)C)N(C)C(=O)OCc1ccc(OC2OC(C(=O)O)C(O)C(O)C2O)c(C(=O)NCCOCCOCCOCCn2cc(CCCNC(=O)C(CCCCN)NC(=O)CCn3cc(CCC(=O)NCCOCCOCCNC(=O)CCC(NC(=O)c4ccc(NCc5cnc6nc(N)[nH]c(=O)c6n5)cc4)C(=O)O)nn3)nn2)c1)C(C)C (centres unmarked) has an IC50 (KB cancer cell line) of 0.95 nM and an IC50 (folate receptor) of 43.8 nM.
